From publication PMC6945596
These are yes or no findings as the source states them, for the method shown. Binding seen in cells or lysates may run through a third protein. Some entries that bind do so weakly or less than the wild type.

The chains behind the UniProt entries cited, without tags or fusion partners.
UniProt Q80SW1: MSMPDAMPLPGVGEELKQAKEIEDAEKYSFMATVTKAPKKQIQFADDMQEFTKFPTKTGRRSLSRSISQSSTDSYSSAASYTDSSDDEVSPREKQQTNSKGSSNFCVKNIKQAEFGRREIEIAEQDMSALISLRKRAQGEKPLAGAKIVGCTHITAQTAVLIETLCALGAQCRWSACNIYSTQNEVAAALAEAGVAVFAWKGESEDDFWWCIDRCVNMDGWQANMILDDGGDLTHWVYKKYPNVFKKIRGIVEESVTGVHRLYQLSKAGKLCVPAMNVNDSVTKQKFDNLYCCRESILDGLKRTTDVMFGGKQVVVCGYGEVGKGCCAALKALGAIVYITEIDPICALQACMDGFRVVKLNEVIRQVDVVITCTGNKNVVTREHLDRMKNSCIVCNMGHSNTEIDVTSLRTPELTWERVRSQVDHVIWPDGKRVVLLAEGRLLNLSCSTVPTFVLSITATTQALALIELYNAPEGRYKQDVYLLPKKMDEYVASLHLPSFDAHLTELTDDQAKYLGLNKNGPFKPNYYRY

Molecular target: T1, sodium-dependent chloride/bicarbonate exchanger Ncbe (mouse (endogenous in choroid plexus)) (UniProt Q5DTL9)
T1 sequence: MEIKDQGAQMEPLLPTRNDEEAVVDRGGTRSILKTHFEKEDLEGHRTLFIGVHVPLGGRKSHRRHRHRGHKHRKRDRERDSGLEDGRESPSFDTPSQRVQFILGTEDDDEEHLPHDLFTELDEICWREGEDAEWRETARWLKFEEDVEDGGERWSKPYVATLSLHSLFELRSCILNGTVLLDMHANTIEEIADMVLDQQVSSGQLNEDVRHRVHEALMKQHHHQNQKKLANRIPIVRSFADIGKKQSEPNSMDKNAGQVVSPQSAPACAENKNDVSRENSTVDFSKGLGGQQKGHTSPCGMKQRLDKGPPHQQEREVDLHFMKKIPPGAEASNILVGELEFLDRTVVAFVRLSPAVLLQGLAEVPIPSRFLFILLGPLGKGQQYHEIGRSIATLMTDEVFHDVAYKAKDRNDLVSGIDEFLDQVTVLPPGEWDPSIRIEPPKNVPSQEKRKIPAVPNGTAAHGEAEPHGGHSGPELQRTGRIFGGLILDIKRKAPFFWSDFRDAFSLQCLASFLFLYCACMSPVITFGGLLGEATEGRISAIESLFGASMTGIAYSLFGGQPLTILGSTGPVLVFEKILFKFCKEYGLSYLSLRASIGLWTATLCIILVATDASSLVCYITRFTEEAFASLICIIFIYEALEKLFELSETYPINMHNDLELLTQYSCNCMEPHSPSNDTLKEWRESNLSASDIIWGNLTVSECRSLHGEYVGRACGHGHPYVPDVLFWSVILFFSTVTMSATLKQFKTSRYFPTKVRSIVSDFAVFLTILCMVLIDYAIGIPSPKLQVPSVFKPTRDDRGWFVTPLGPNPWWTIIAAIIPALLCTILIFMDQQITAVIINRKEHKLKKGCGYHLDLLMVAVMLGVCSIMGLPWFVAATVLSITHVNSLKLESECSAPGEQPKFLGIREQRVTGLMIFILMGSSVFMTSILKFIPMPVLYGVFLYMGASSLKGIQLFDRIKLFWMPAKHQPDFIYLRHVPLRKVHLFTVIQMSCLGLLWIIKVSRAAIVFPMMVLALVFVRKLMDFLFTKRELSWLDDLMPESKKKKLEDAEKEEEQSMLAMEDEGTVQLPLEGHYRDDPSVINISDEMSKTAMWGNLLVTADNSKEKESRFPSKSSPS
Assay: proximity ligation; Duolink PLA with anti-Ncbe and anti-IRBIT antibodies on paraffin sections of perfusion-fixed mouse brain (choroid plexus); Ncbe ko tissue run in parallel as negative control

binding: binds
Substance: IP3R Binding protein released with Inositol 1,4,5-Trisphosphate (IRBIT) (from UniProt Q80SW1 1-530)
